Results reported in the supplement of paper PMC7666118.
This is one part of the list.

Amino acid sequences for entries named in this document (tags omitted). A change or cut given only in a name is not applied to a line headed by its entry.
UniProt P31937: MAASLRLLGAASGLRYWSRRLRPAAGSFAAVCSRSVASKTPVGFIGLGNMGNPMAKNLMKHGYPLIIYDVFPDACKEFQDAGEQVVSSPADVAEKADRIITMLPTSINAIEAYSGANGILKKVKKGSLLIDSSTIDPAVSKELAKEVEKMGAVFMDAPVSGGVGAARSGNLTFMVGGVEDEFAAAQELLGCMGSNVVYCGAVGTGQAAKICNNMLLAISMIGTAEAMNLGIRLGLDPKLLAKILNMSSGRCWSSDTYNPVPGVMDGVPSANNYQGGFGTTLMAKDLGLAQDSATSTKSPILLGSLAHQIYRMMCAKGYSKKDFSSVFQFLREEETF
UniProt Q12849: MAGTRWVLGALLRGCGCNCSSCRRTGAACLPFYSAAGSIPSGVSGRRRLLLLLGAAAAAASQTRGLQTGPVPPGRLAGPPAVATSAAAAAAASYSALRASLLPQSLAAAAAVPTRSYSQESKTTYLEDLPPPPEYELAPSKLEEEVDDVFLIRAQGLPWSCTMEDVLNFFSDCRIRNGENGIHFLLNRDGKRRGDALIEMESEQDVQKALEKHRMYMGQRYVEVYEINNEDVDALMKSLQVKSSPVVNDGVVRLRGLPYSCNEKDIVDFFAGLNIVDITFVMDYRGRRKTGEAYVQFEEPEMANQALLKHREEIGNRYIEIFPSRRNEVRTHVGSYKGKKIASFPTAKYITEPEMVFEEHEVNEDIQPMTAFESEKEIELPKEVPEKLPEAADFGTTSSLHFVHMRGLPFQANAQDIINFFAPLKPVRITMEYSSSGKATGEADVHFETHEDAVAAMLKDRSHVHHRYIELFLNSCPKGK
UniProt P29084: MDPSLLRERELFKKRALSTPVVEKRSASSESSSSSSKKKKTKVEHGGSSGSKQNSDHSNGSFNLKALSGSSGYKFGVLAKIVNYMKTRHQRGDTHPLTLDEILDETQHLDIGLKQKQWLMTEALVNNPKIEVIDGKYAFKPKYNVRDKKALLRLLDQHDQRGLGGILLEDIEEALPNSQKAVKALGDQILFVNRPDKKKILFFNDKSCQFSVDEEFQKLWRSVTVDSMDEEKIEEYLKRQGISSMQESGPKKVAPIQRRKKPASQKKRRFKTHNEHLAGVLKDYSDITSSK
UniProt O14979: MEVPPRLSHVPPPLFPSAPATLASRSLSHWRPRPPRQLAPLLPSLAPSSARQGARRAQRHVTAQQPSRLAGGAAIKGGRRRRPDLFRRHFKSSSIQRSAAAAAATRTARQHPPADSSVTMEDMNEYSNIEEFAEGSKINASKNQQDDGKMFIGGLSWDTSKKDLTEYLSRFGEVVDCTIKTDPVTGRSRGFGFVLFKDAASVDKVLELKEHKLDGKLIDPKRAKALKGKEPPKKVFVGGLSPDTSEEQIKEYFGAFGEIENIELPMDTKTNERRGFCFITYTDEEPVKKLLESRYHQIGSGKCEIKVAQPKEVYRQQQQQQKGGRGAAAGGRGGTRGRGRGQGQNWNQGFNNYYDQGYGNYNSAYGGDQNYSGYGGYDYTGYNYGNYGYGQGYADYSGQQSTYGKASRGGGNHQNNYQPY
UniProt Q7Z4H3: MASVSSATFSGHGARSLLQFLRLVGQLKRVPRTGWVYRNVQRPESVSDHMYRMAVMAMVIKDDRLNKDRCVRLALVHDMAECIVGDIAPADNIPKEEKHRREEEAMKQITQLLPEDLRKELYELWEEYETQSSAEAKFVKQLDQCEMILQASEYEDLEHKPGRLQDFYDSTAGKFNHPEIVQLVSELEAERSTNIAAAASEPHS
UniProt Q7Z5G4, whole entry: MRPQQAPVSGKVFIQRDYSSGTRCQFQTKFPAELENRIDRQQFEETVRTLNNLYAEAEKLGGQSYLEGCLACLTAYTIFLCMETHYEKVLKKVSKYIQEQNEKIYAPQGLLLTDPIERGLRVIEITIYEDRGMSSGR
UniProt Q96EW2: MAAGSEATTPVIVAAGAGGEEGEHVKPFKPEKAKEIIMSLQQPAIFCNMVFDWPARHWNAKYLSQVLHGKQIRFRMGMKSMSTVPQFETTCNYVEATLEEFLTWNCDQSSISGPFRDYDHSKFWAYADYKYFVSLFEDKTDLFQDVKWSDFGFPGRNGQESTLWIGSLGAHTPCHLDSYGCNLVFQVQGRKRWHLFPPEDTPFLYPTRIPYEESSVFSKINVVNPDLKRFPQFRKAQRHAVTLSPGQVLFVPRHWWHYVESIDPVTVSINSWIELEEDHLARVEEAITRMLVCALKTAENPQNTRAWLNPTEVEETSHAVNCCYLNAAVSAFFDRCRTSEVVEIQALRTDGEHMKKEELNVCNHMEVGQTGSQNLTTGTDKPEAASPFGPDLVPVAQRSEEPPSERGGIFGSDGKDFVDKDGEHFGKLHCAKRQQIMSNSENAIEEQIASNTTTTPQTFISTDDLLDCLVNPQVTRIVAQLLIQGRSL
UniProt Q14527: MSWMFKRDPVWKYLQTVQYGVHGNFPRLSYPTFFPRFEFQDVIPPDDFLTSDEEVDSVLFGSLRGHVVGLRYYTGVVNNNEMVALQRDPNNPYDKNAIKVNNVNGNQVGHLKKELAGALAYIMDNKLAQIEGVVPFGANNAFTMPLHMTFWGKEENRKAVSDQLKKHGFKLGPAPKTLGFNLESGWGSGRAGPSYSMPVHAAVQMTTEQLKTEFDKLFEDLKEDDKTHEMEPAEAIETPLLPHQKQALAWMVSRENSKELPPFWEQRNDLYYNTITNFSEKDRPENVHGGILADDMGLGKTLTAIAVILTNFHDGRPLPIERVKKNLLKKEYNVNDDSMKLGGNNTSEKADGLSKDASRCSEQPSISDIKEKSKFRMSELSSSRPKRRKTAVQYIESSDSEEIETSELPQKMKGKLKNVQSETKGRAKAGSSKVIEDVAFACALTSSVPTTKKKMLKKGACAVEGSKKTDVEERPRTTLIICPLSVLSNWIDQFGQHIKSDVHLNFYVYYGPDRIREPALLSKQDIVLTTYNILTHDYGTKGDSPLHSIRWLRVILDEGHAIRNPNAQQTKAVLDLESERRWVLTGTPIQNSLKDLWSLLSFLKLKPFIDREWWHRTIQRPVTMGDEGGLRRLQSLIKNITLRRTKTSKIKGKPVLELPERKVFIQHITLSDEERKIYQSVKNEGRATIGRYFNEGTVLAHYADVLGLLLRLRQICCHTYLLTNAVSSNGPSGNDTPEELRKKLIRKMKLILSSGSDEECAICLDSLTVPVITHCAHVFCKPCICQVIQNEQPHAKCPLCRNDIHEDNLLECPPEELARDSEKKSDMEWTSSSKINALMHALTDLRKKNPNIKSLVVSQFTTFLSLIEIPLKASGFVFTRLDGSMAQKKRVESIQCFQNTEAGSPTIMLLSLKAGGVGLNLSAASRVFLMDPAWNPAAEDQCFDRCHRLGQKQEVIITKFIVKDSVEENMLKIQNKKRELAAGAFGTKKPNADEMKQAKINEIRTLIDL
UniProt Q92902: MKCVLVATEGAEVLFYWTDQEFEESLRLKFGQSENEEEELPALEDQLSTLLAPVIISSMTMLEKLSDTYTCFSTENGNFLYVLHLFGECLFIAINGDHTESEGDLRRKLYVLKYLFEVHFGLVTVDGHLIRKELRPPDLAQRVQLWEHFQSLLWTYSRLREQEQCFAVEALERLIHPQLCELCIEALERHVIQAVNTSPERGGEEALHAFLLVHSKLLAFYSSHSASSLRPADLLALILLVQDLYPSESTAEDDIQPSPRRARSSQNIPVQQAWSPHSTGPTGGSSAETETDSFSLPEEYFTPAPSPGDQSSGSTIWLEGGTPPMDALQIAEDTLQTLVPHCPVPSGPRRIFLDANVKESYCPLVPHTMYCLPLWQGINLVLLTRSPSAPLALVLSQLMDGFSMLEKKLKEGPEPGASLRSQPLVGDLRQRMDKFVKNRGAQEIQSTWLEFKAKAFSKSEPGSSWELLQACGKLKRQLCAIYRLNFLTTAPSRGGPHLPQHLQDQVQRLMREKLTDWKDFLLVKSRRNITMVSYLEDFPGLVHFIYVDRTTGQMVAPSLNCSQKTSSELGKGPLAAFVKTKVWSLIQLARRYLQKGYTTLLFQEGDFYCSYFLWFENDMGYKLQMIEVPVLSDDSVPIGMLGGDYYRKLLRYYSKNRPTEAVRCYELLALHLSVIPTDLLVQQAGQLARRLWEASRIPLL
UniProt P57764: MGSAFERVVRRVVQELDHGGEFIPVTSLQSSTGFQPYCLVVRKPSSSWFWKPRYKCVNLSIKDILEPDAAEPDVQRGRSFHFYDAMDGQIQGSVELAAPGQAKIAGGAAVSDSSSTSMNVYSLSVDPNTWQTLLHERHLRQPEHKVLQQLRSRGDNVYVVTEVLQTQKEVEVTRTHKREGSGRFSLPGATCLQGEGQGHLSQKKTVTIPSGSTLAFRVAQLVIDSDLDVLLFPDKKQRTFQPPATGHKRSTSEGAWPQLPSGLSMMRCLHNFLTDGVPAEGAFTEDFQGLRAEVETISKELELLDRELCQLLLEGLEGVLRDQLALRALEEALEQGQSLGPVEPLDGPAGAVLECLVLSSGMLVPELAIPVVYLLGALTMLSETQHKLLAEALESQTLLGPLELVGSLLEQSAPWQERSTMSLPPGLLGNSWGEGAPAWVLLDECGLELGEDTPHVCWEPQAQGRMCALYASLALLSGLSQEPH
UniProt P17096: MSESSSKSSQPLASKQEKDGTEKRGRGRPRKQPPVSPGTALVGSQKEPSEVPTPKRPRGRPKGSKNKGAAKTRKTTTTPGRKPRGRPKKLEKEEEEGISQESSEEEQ
UniProt P13984, whole entry: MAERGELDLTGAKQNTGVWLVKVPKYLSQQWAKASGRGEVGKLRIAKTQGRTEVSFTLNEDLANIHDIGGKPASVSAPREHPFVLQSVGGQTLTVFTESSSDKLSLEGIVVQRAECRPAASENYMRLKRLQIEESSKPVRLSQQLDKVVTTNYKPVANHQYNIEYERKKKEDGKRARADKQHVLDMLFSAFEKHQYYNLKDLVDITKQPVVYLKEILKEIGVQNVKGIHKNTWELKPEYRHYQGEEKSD
UniProt P13807: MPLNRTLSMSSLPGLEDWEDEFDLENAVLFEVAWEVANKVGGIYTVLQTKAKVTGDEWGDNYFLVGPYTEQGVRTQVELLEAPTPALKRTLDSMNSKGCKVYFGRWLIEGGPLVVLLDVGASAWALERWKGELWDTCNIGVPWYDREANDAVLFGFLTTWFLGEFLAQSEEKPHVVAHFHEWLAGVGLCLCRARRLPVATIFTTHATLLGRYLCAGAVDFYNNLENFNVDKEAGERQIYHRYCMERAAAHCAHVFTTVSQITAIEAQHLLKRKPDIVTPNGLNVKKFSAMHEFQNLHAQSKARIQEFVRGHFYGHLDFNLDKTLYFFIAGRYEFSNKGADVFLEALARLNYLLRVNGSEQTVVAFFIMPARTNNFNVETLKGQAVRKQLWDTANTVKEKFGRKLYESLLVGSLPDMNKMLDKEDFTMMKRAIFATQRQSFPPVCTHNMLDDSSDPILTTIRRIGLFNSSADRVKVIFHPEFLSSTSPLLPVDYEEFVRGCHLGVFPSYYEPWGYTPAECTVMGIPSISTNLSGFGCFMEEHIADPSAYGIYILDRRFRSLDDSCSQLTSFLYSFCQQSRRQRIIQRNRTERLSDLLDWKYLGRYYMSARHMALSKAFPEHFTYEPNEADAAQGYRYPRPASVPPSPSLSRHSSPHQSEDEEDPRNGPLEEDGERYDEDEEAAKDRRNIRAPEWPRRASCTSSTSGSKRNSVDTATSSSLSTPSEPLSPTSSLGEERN
UniProt Q92522: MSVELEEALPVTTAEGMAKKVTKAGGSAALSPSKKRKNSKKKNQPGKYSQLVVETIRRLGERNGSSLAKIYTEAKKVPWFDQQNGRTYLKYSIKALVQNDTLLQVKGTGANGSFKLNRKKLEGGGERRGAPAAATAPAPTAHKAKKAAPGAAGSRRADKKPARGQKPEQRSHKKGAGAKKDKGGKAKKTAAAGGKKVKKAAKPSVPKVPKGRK
UniProt P49773: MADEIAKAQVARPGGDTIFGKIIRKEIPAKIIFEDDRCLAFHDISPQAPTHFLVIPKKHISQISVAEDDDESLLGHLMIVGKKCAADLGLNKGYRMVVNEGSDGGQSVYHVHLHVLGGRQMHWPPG
UniProt Q8TDQ7: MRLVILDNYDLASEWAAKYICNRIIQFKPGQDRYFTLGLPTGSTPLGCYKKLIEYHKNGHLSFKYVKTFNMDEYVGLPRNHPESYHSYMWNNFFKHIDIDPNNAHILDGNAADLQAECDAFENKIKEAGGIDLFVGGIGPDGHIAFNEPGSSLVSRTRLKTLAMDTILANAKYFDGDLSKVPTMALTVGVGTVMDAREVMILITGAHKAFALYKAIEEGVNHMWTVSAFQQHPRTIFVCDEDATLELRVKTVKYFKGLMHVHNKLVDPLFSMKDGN
UniProt P30519: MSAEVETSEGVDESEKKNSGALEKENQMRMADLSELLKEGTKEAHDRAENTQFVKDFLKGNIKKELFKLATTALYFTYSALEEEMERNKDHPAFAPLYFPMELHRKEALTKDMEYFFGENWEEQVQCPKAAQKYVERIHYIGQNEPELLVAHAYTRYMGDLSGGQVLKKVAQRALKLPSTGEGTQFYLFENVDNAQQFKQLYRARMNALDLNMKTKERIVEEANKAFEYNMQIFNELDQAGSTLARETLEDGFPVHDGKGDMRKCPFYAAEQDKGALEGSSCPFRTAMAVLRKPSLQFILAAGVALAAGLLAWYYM

What follows are targets tested with COc1ccc(Cn2ccc3cc(C)c(C(=O)NO)cc32)cc1 (assay: dose-dependent thermal stabilisation call (2D-TPP, DLPTP, 10% FDR) (binary (1 = stabilised)); higher = stabilised by the compound). Details: system: HL-60 intact cells; concentration range 0.04-10 µM.
Experimental: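 2D thermal proteome profiling in intact HL-60 cells treated with BRD-3811 (0, 0.04, 0.29, 2, 10 uM) for 90 min at 37 C, then heated 3 min at one of 12 temperatures (42-63.9 C). Soluble protein was quantified by TMT10 MS. The value is the DLPTP call of the paper: dose-dependent thermal stabilisation over all temperatures at 10% FDR (F-test of a dose-response against a flat model); one experiment, one call per tested protein.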
HSPA1A (UniProt P0DMV8) was tested, and the “dose-dependent thermal stabilisation call” value was inactive: 0. HSPA4 (UniProt P34932) was tested, and the “dose-dependent thermal stabilisation call” value was inactive: 0. In the case of HNRNPH2 (UniProt P55795), the “dose-dependent thermal stabilisation call” value is reported as inactive: 0. In the case of HIBADH (UniProt P31937), the “dose-dependent thermal stabilisation call” value is reported as inactive: 0. In the case of HCCA2, the “dose-dependent thermal stabilisation call” value is reported as inactive: 0. In the case of GRSF1 (UniProt Q12849), the “dose-dependent thermal stabilisation call” value is reported as inactive: 0. For HECTD1 (UniProt Q9ULT8), the “dose-dependent thermal stabilisation call” value was inactive: 0. For GTF2E2 (UniProt P29084), the “dose-dependent thermal stabilisation call” value was inactive: 0. For HNRPDL (UniProt O14979), the “dose-dependent thermal stabilisation call” value was inactive: 0. For GTPBP1 (UniProt O00178), the “dose-dependent thermal stabilisation call” value was inactive: 0. With GSTP1 (UniProt P09211) the “dose-dependent thermal stabilisation call” value was inactive: 0. With HDDC2 (UniProt Q7Z4H3) the “dose-dependent thermal stabilisation call” value was inactive: 0. With HCFC1 (UniProt P51610) the “dose-dependent thermal stabilisation call” value was inactive: 0. GOLGA7 (UniProt Q7Z5G4) was tested, and the “dose-dependent thermal stabilisation call” value was inactive: 0. With HSPBAP1 (UniProt Q96EW2) the “dose-dependent thermal stabilisation call” value was inactive: 0. For HLTF (UniProt Q14527), the “dose-dependent thermal stabilisation call” value was inactive: 0. For GRB10 (UniProt Q13322), the “dose-dependent thermal stabilisation call” value was inactive: 0. In the case of GNL2 (UniProt Q13823), the “dose-dependent thermal stabilisation call” value is reported as inactive: 0. HAGHL (UniProt Q6PII5) was tested, and the “dose-dependent thermal stabilisation call” value was inactive: 0. HNRNPD (UniProt Q14103) was tested, and the “dose-dependent thermal stabilisation call” value was inactive: 0. For H3F3A (UniProt P84243), the “dose-dependent thermal stabilisation call” value was inactive: 0. For HPS1 (UniProt Q92902), the “dose-dependent thermal stabilisation call” value was inactive: 0. In the case of GSDMD (UniProt P57764), the “dose-dependent thermal stabilisation call” value is reported as inactive: 0. For GPATCH8 (UniProt Q9UKJ3), the “dose-dependent thermal stabilisation call” value was inactive: 0. HRAS (UniProt P01112) was tested, and the “dose-dependent thermal stabilisation call” value was inactive: 0. In the case of HMGA1 (UniProt P17096), the “dose-dependent thermal stabilisation call” value is reported as inactive: 0. For GTF2F2 (UniProt P13984), the “dose-dependent thermal stabilisation call” value was inactive: 0. For HIST1H2AD (UniProt P20671), the “dose-dependent thermal stabilisation call” value was inactive: 0. With HERC5 (UniProt Q9UII4) the “dose-dependent thermal stabilisation call” value was inactive: 0. With GYS1 (UniProt P13807) the “dose-dependent thermal stabilisation call” value was inactive: 0. With HSPB1 (UniProt P04792) the “dose-dependent thermal stabilisation call” value was inactive: 0. For H1FX (UniProt Q92522), the “dose-dependent thermal stabilisation call” value was inactive: 0. For HINT1 (UniProt P49773), the “dose-dependent thermal stabilisation call” value was inactive: 0. In the case of GNPDA2 (UniProt Q8TDQ7), the “dose-dependent thermal stabilisation call” value is reported as inactive: 0. For HMOX2 (UniProt P30519), the “dose-dependent thermal stabilisation call” value was active: 1. In the case of GOLM1 (UniProt Q8NBJ4), the “dose-dependent thermal stabilisation call” value is reported as inactive: 0.
